For 26 targets, log2 fold change results are on record in the supplement of paper PMC10849652.

Protein sequences, listed by entry. Tags and fused reporters are not part of them. Lines headed by an entry give the natural chain unless they say otherwise; changes in a name come on top.
UniProt O60361, whole entry, looked up: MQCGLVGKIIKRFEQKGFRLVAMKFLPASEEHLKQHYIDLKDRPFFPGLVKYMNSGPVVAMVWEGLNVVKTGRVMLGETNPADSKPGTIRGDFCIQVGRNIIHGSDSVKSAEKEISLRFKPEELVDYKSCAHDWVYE
UniProt P40261: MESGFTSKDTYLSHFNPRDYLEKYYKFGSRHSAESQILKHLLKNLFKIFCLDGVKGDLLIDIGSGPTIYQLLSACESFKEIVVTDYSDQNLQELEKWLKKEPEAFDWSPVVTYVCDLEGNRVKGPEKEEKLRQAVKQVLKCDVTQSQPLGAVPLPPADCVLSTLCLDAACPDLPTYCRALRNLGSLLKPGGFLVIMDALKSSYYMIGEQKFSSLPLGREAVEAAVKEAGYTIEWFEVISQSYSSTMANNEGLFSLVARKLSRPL
UniProt Q9Y5A7: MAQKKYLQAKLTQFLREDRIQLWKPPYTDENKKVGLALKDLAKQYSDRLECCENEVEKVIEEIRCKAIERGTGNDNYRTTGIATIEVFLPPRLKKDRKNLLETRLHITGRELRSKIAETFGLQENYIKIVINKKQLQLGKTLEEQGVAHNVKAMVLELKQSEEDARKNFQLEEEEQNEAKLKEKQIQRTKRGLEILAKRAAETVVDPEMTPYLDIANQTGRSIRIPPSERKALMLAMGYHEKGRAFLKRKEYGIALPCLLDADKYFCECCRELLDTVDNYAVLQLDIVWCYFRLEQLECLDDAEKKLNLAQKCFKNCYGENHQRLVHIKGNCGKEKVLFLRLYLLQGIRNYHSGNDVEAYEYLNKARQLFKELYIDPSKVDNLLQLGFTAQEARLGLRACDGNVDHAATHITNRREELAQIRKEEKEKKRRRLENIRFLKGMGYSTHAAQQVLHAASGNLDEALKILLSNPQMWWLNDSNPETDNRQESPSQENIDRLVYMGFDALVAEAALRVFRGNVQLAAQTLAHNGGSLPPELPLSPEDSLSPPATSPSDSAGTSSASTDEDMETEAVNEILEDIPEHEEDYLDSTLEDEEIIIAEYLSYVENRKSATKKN
UniProt Q8IVD9: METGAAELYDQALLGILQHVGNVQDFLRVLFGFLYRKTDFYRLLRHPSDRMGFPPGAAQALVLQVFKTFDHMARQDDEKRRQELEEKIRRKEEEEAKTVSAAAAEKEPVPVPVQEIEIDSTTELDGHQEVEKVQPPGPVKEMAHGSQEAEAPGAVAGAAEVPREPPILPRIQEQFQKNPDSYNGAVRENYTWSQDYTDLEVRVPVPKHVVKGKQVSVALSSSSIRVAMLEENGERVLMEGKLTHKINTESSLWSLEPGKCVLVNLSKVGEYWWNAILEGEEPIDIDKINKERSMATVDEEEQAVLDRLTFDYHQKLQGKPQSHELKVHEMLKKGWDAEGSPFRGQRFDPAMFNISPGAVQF
UniProt Q9H6R4: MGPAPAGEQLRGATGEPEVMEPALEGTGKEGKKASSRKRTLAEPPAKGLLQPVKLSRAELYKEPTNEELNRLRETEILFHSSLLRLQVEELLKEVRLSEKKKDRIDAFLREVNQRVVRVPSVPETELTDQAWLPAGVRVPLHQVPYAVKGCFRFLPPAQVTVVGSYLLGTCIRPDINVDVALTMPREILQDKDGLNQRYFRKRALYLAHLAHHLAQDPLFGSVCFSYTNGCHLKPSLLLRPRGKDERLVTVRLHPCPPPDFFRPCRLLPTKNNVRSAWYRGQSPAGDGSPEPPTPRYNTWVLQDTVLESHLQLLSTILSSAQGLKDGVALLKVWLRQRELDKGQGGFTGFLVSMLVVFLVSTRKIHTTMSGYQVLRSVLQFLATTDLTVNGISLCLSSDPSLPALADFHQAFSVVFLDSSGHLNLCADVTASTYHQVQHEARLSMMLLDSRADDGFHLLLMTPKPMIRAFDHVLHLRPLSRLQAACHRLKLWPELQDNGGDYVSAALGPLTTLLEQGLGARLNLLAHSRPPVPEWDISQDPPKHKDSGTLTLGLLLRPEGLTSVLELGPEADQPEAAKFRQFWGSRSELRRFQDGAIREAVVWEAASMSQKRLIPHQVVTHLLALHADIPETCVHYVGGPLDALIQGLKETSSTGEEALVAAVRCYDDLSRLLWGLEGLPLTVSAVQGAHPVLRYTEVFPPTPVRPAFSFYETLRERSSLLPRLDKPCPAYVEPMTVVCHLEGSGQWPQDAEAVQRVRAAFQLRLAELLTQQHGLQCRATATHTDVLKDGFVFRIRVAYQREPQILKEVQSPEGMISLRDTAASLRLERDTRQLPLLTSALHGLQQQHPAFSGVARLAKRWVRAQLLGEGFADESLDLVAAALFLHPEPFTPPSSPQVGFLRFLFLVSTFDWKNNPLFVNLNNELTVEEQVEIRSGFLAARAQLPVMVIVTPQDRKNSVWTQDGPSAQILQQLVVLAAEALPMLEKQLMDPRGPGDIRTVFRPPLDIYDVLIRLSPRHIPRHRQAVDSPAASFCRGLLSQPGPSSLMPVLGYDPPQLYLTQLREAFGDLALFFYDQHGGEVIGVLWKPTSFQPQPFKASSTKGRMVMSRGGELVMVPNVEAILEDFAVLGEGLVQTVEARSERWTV
UniProt P57740: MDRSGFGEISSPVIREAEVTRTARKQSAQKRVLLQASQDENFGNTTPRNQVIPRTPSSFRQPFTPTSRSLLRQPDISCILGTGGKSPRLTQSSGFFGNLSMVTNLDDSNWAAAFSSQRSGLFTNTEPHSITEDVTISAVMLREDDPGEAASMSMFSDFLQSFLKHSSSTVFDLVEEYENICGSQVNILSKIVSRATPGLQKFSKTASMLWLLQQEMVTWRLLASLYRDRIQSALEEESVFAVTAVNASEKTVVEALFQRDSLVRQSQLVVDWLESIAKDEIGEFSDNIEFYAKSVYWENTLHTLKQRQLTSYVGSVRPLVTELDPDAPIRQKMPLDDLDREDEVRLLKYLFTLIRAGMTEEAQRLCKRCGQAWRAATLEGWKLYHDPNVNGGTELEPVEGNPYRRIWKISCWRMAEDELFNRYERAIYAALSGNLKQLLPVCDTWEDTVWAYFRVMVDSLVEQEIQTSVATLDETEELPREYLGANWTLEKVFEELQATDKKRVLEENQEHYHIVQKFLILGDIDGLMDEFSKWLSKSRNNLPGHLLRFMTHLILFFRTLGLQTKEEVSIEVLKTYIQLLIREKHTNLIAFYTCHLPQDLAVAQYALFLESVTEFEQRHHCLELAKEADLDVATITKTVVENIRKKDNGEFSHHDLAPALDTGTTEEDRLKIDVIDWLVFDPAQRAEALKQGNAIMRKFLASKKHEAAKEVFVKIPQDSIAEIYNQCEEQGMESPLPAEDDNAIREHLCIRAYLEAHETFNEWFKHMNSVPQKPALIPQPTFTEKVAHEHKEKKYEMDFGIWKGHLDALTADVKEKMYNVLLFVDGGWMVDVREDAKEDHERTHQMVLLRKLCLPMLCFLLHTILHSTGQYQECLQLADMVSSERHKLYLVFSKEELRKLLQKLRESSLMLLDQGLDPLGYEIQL
UniProt O95989: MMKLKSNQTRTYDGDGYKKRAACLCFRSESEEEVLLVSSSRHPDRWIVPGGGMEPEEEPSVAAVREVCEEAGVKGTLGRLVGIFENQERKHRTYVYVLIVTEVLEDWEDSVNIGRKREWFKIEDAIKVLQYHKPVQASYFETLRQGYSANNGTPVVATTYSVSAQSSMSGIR
UniProt Q9UMY1: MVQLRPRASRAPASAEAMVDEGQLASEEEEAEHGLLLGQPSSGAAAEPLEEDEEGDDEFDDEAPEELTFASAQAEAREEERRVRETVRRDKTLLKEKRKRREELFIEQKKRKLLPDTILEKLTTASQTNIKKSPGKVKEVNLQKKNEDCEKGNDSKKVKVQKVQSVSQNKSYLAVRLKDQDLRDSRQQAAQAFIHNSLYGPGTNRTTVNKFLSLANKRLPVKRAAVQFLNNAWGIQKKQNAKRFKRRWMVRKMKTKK
UniProt Q8TEA1: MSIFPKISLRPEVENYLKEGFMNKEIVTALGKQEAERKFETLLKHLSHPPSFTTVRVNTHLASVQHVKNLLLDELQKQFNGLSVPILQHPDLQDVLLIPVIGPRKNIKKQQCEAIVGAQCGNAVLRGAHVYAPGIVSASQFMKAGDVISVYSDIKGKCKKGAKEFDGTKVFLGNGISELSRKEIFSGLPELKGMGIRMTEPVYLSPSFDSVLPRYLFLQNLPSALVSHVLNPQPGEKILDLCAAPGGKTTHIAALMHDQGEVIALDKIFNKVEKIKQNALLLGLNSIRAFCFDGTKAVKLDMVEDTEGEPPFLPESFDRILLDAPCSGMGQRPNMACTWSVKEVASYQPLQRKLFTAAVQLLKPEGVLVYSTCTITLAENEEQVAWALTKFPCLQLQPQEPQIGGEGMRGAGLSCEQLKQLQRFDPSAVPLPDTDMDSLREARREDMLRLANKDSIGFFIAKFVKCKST
UniProt Q9UGY1: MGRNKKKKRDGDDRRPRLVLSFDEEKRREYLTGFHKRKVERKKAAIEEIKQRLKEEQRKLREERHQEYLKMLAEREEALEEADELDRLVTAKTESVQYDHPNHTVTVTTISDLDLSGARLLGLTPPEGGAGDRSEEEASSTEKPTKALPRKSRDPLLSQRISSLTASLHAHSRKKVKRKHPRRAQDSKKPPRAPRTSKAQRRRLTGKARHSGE
UniProt Q8IVI9: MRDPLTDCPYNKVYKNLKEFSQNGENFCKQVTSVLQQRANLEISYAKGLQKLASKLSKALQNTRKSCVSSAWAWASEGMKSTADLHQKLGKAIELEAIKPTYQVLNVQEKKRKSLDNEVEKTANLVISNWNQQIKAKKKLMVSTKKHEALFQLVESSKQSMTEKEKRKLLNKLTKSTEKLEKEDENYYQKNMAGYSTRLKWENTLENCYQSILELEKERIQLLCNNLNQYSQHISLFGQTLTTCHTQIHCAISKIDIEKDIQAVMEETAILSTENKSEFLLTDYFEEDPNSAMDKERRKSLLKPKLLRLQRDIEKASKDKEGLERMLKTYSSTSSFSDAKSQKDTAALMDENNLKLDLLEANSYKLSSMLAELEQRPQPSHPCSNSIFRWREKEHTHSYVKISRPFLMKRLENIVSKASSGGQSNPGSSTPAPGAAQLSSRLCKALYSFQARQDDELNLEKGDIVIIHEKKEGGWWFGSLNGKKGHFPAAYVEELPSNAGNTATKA
UniProt Q9BRJ7: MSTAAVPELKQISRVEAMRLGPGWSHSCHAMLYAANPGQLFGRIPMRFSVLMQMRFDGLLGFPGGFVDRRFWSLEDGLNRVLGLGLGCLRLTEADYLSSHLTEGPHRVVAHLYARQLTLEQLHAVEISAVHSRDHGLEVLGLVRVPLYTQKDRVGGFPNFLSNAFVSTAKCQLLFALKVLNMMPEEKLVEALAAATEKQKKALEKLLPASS
UniProt Q13287: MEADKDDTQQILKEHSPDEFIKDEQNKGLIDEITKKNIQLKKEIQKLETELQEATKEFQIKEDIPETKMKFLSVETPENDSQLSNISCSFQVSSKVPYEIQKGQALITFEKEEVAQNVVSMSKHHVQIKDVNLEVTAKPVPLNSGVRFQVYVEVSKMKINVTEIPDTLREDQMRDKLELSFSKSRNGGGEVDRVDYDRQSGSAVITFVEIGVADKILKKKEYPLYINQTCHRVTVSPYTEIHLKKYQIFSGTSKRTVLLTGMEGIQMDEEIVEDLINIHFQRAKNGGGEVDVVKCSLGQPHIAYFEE
UniProt P04150: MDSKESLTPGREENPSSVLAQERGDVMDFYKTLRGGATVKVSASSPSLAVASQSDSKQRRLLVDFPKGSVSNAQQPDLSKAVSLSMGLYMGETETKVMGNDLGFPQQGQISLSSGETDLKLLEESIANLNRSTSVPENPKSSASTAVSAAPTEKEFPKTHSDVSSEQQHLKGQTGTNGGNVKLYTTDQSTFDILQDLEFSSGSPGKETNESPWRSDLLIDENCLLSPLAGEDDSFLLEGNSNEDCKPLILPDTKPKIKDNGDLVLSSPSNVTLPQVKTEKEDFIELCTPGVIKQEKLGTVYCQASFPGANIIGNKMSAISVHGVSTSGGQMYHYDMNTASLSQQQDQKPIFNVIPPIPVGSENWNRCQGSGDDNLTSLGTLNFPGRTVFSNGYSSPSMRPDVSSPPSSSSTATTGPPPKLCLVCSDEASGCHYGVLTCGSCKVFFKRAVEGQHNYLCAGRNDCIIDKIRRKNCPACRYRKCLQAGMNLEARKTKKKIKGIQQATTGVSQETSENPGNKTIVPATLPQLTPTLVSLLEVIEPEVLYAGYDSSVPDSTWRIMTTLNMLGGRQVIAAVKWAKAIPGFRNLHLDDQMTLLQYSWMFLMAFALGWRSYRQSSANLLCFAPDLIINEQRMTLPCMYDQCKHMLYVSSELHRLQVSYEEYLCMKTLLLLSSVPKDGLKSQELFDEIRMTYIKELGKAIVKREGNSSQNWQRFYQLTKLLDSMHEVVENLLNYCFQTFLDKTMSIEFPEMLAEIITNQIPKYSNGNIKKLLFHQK

The other results are listed elsewhere or left out.

What all share (experiment): log2 fold change, soluble protein after heating vs DMSO (PISA); higher = thermal stabilisation; K562 lysate, 10 uM; active = over 0.2 and 3.5 SD of the protein, either way, in both replicates (recomputed)
Compound in assay [1]: C1=CC=C(C=C1)[C@H](COC2=CC3=C(C=C2)NC(=O)N3)NC(=O)C4=CC=CN(C4=O)CC5=CC(=C(C=C5)F)F
In short, it runs like this:
(§1)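 Values give the log-two fold change in thermal stability against solvent controls, from duplicates. Crude K562 extract at 1 mg/mL protein, made by dounce homogenisation in PBS pH 7.4 with 1 mM MgCl2, was treated with 10 μM compound for 30 min. After 3 min heating across 48°C-58°C, aliquots were pooled, adjusted to 0.5% NP-40 at 4°C and centrifuged at 21,000xg for 90 min. The supernatant was measured by TMTpro 16plex LC-MS/MS with channel sums equalised.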

Compound in assay [2]: CC1=C(SC2=C1C(=N[C@H](C3=NN=C(N32)C)CC(=O)N)C4=CC=C(C=C4)Cl)C
The method in brief:
as §1

Compound in assay [3]: CC1=C2C(=CC=C1)N=C(N(C2=O)C3=CC=CC=C3C)CN4C=NC5=C(N=CN=C54)N
In short, it runs like this:
as §1

Compound in assay [4]: Cc1sc2c(c1C)C(c1ccc(Cl)cc1)=N[C@@H](CC(=O)OC(C)(C)C)c1nnc(C)n1-2
In short, it runs like this: as §1

Compound in assay [5]: c1ccc([C@@H]2C[C@H]2NC2CCNCC2)cc1
In short, it runs like this:
as §1

Turning to NRBF2 (UniProt Q96F24), the log2 fold change in assay [1] was inactive: -0.034; in assay [2], inactive: -0.037; in assay [3], inactive: -0.024; in assay [4], inactive: -0.007; in assay [5] it was inactive: 0.008.

For the target NME2P1 (UniProt O60361), the log2 fold change in assay [1] is inactive: 0.02; in assay [2], inactive: -0.049; in assay [3], inactive: 0.154; in assay [4], inactive: -0.183; in assay [5], inactive: -0.222.

As for NNMT (UniProt P40261), the log2 fold change in assay [1] is inactive: 0.003; in assay [2] it was inactive: 0.05; in assay [3], inactive: 0.027; in assay [4] it was inactive: -0.011; in assay [5] it was inactive: -0.027.

In the case of NOC2L (UniProt Q9Y3T9), the log2 fold change is inactive: 0.004 in assay [1]; inactive: -0.019 in assay [2]; inactive: 0.009 in assay [3]; active: 0.324 in assay [4]; inactive: -0.012 in assay [5].

As to NUB1 (UniProt Q9Y5A7), the log2 fold change is inactive: -0.011 in assay [1]; inactive: 0.029 in assay [2]; inactive: 0.025 in assay [3]; inactive: 0.013 in assay [4]; inactive: 0.039 in assay [5].

With NUDCD3 (UniProt Q8IVD9), the log2 fold change in assay [1] is inactive: 0.017; in assay [2] it was inactive: 0.011; in assay [3], inactive: -0.014; in assay [4], inactive: 0.029; in assay [5], inactive: -0.026.

Turning to NUDT2 (UniProt P50583), the log2 fold change is inactive: -0.008 in assay [1]; inactive: 0.001 in assay [2]; inactive: -0.011 in assay [3]; inactive: 0.036 in assay [4]; inactive: -0.033 in assay [5].

Consider NOL6 (UniProt Q9H6R4), for which the log2 fold change was inactive: 0 in assay [1]; inactive: -0.017 in assay [2]; inactive: -0.018 in assay [3]; inactive: -0.042 in assay [4]; inactive: 0.023 in assay [5].

In the case of NUCB1 (UniProt Q02818), the log2 fold change in assay [1] is inactive: 0.016; in assay [2], inactive: -0.002; in assay [3], inactive: -0.007; in assay [4], inactive: -0.03; in assay [5] it was inactive: -0.017.

As for NUCB2 (UniProt P80303), the log2 fold change in assay [1] was inactive: 0.041; in assay [2], inactive: -0.005; in assay [3], inactive: -0.011; in assay [4] it was inactive: -0.021; in assay [5] it was inactive: 0.079.

On to NUP107 (UniProt P57740), for which the log2 fold change was inactive: 0.063 in assay [1]; inactive: 0.003 in assay [2]; inactive: 0.052 in assay [3]; inactive: -0.013 in assay [4]; inactive: -0.006 in assay [5].

NUMB (UniProt P49757): the log2 fold change is inactive: 0.001 in assay [1]; inactive: 0.034 in assay [2]; inactive: 0.009 in assay [3]; inactive: 0.004 in assay [4]; inactive: -0.032 in assay [5].

As for NUDT3 (UniProt O95989), the log2 fold change is inactive: -0.007 in assay [1]; inactive: -0.055 in assay [2]; inactive: -0.001 in assay [3]; inactive: 0.018 in assay [4]; inactive: -0.063 in assay [5].

For the target NOL7 (UniProt Q9UMY1), the log2 fold change in assay [1] was inactive: 0.056; in assay [2], inactive: -0.089; in assay [3], inactive: -0.052; in assay [4] it was inactive: 0.12; in assay [5], inactive: 0.05.

NOC4L (UniProt Q9BVI4): the log2 fold change was inactive: -0.031 in assay [1]; inactive: 0.02 in assay [2]; inactive: 0.044 in assay [3]; inactive: 0.081 in assay [4]; inactive: 0.083 in assay [5].

Consider NSUN6 (UniProt Q8TEA1), for which the log2 fold change in assay [1] is inactive: 0.018; in assay [2], inactive: 0; in assay [3], inactive: 0.03; in assay [4] it was inactive: -0.008; in assay [5], inactive: -0.003.

Consider NOL12 (UniProt Q9UGY1), for which the log2 fold change in assay [1] was inactive: 0.005; in assay [2], inactive: -0.001; in assay [3], inactive: -0.075; in assay [4], inactive: -0.003; in assay [5], inactive: 0.004.

NOSTRIN (UniProt Q8IVI9): the log2 fold change was inactive: -0.061 in assay [1]; inactive: 0.039 in assay [2]; inactive: 0.017 in assay [3]; inactive: -0.092 in assay [4]; inactive: 0.017 in assay [5].

With NRAS (UniProt P01111), the log2 fold change in assay [1] is inactive: -0.053; in assay [2], inactive: 0.003; in assay [3], inactive: 0.018; in assay [4], inactive: 0.019; in assay [5], inactive: 0.015.

For the target NUFIP2 (UniProt Q7Z417), the log2 fold change is inactive: 0.002 in assay [1]; inactive: -0.006 in assay [2]; inactive: 0.002 in assay [3]; inactive: -0.004 in assay [4]; inactive: -0.014 in assay [5].

On to NUDCD1 (UniProt Q96RS6), for which the log2 fold change was inactive: -0.015 in assay [1]; inactive: -0.005 in assay [2]; inactive: -0.008 in assay [3]; inactive: -0.001 in assay [4]; inactive: -0.023 in assay [5].

Regarding NUDT16L1 (UniProt Q9BRJ7), the log2 fold change in assay [1] was inactive: 0.016; in assay [2] it was inactive: -0.067; in assay [3], inactive: 0.054; in assay [4], inactive: -0.033; in assay [5], inactive: 0.022.

Regarding NUDT1 (UniProt P36639), the log2 fold change was inactive: 0.041 in assay [1]; inactive: -0.017 in assay [2]; inactive: -0.018 in assay [3]; inactive: 0.014 in assay [4]; inactive: -0.004 in assay [5].

NMI (UniProt Q13287): the log2 fold change in assay [1] was inactive: 0.026; in assay [2], inactive: 0.013; in assay [3], inactive: 0.005; in assay [4], inactive: -0.01; in assay [5] it was inactive: -0.019.

For the target NTHL1 (UniProt P78549), the log2 fold change is inactive: -0.134 in assay [1]; inactive: 0.127 in assay [2]; inactive: -0.452 in assay [3]; inactive: -0.038 in assay [4]; inactive: 0.158 in assay [5].

In the case of NR3C1 isoform 3 (UniProt P04150), the log2 fold change was active: 0.292 in assay [1]; inactive: 0.034 in assay [2]; inactive: -0.001 in assay [3]; inactive: -0.035 in assay [4]; inactive: 0.084 in assay [5].
